Test results taken from PMC7498331.
No constants are given. Whether binding was seen depends on the method and setting. In cells and extracts the contact can be indirect. Some results given as binding are weak or reduced against the parent protein; the word gives no strength.

Chains of the proteins cited; added tags and fusions are not shown.
UniProt Q8CJB9: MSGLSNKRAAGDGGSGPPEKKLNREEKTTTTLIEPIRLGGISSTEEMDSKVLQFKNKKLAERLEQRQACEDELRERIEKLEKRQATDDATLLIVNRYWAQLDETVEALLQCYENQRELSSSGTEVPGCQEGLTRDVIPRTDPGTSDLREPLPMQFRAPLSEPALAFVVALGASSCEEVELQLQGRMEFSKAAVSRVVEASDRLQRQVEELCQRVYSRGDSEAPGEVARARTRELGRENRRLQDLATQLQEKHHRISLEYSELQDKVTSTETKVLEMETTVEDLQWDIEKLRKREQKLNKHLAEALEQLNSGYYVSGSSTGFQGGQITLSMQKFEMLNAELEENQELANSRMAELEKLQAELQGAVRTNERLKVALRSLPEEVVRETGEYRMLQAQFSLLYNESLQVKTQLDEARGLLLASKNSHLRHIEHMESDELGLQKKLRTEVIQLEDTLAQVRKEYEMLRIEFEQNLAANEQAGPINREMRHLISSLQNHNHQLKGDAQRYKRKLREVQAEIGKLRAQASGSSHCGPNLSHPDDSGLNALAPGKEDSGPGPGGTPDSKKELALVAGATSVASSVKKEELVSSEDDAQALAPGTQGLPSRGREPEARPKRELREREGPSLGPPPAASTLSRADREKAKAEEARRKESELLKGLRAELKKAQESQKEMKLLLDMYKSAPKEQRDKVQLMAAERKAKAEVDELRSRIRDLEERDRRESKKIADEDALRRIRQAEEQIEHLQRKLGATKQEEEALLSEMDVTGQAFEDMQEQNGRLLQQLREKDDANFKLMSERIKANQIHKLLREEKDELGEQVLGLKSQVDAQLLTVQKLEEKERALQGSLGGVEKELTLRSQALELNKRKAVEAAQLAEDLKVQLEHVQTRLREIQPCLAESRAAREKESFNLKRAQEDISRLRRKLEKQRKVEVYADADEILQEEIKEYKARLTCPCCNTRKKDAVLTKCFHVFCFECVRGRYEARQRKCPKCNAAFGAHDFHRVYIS

Molecular target: Endogenous Rnf40 (rat (endogenous in primary rat Schwann cells)) (UniProt Q8CJB9)
Assay: co-IP; endogenous proteins; whole cell extracts of primary rat Schwann cells treated for 3 days with dibutyryl-cAMP, neuregulin and insulin; precipitation with anti-Rnf40 or anti-Rnf20 antibodies (IgG control) and protein A sepharose overnight at 4°C; western blot for Egr2

binding: binds
Substance: Endogenous Egr2 (from UniProt P51774 1-470)
